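Viability assay of Plasmodium falciparum sporozoites; the read-out is not stated. The concentration is filed as 10 mM, unlikely as a test dose, so the dose is not known. Higher reads as lower viability (inferred: compounds with an IC50 in retests scored well above the rest). Strong results were mostly tested again. Of about 34,000 compounds tested this way, about 280 (0.84%) reached 50% or more in at least one test.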

Values are the deposited “Percent Effect”, in %. The record does not define 0% and 100%; most values in the screen are far below 50% and negative numbers occur (in some assays of this library far below -100). This is an unselected part of the compounds tested. Two or more numbers in one place are separate tests of the same structure; such repeats can differ widely.

| # | compound | Percent Effect |
|---|---|---|
| 1 | `O=C(CCSc1ccccc1F)NCc1cccnc1` | -8.475 |
| 2 | `Cc1cc(-c2ccccc2C(=O)O)nc(C2CCCN(C)C2)n1` (stereo not given) | 2.532 |
| 3 | `Cn1cnc2c1CCN(CCCc1ccccc1)C2` | -10.54 |
| 4 | `Cc1ccc(OCCCNC(=O)C2(C)CC(=O)N3C=CC=CC3=N2)cc1` (stereo not given) | 3.678 |
| 5 | `CN(C)CCN1CCc2c(nnn2C)C1COCc1ccccc1.O=C(O)C(F)(F)F.O=C(O)C(F)(F)F` (stereo not given) | -9.635 |
| 6 | `COCCN(CC1CC1)c1nc(CCN)nc2sc(C)c(C)c12` | -1.856 |
| 7 | `CC(Nc1ccc(Oc2cccc(C#N)c2)cc1)C(=O)NC1CC1` (stereo not given) | -8.324 |
| 8 | `Cc1cccc(CN2CC3(CCN(C(=O)N(C)C)CC3)OCC2=O)n1.O=C(O)C(F)(F)F` | -29.4 & -26.08 & -1.316 |
| 9 | `CN(C(=O)NCc1ccncc1)C1CCCN(c2ccccc2)C1=O` (stereo not given) | 2.612 |
| 10 | `OCCCc1nncn1-c1cccc(C(F)(F)F)c1` | -17.7 |
| 11 | `Cc1noc(C2CCN(C(=O)CCc3nccs3)CC2)n1` | 8.857 |
| 12 | `O=C(Cc1n[nH]c2ccccc12)N1CCCCC1Cn1cccn1` (stereo not given) | -4.743 |
| 13 | `NCC(c1ccc(Cl)cc1)N1CCc2sccc2C1` (stereo not given) | 22.65 |
| 14 | `O=C(NCCCOC1CCCCC1)C1NCCc2[nH]cnc21` (stereo not given) | -0.5917 |
| 15 | `Cc1ccc(C(=O)N2CCC3(CC2)C(=O)NCCN3C)cc1O` | -27.85 |
| 16 | `Cc1cc(-c2cnc(N3CCN(C)CC3)nc2C(C)C)on1` | -2.887 |
| 17 | `O=C(c1cnccn1)N1CCN(Cc2cscn2)CC1` | -2.77 |
| 18 | `Cn1cc(-c2nnn3c2COC(CNCc2cccnc2)C3)cn1` (stereo not given) | -10.27 |
| 19 | `O=C(CCC1CCCN(C(=O)CCc2ccc(F)c(F)c2)C1)NC1CC1` (stereo not given) | -49.74 |
| 20 | `O=C1CC2(CCN(CC3CCOC3)CC2)CN1Cc1cc(F)cc(F)c1` (stereo not given) | -5.151 |
| 21 | `CS(=O)(=O)NC1CC2(CCN(CC3CC3)CC2)Oc2ccccc21.O=C(O)C(F)(F)F` (stereo not given) | 4.825 |
| 22 | `NC(=O)C1CCN(C(=O)c2ccc(OCc3cscn3)cc2)CC1` | 2.507 |
| 23 | `CC1=Nc2c(c(=O)[nH]n2C(C)C)C(c2ccc3nccnc3c2)S1` (stereo not given) | -8.165 & -3.241 |
| 24 | `[H][C@@]12CCC[C@@H](OCc3cccnc3)[C@]1([H])CN(Cc1cnn(C)c1)C2` | 6.388 |
| 25 | `Cc1cnn(CC(C)NCC(=O)NC2CCOCC2)c1` (stereo not given) | 9.656 |
| 26 | `O=C(NCCN1CCCCCC1)c1n[nH]c(=O)c2ccccc12` | 12.83 |
| 27 | `CNC(=O)CN1CCC2(CC1)C[C@@H](O)[C@H](c1ccccc1)NC2=O` | -1.465 |
| 28 | `Cc1nn(C(C)C)c(C)c1CN1CCN(C2CCCCC2)C(=O)C1.O=C(O)CC(O)(CC(=O)O)C(=O)O` | -1.091 |
| 29 | `CC(=O)N1CCOCC2(CN(Cc3ccc(C)o3)CCO2)C1.O=C(O)C(F)(F)F` (stereo not given) | -2.884 |
| 30 | `O=C(O)C(F)(F)F.[H][C@]12CN(Cc3nccs3)C[C@@]1([H])OCCN(C(=O)c1ccsc1)C2` | -0.5254 |
| 31 | `CC(C)C(=O)NCCCn1ncc2c(Cl)cccc21` | -27.26 |
| 32 | `COC1COC2(CCN(Cc3cccc(Cl)c3)CC2)C1.O=C(O)C(F)(F)F` (stereo not given) | -20.35 & -24.38 |
| 33 | `CCn1c(C2CCN(C(=O)c3cc(CC(C)C)on3)CC2)nn(C)c1=O` | -0.7877 & 5.537 |
| 34 | `CN(CCN1CCCCCC1)C(=O)c1cc(CN2CCC(O)CC2)on1` | -3.424 |
| 35 | `Cc1ccc(CN(C)C(=O)CCNS(=O)(=O)c2cccnc2)cc1` | -8.824 |
| 36 | `[H][C@]12C[C@H](C(=O)NCC3CC3)N(C(C)=O)[C@@]1([H])CN(Cc1ccco1)C2` | 6.308 |
| 37 | `Cn1cc(CN2CCc3c(c(COCC#N)nn3C)C2)cn1` | -2.053 |
| 38 | `COCc1nc(C(=O)N2CCCC2c2c(C)nn(C)c2C)cs1` (stereo not given) | -31.93 & -25.28 & -19.57 |
| 39 | `[H][C@@]12C[C@H](C(=O)NCc3ccccc3)[C@@]([H])(CN(S(=O)(=O)CC(C)C)C1)O2` | 9.211 |
| 40 | `COCCn1cnc2ccc(NC(=O)c3ccccn3)cc2c1=O` | 0.8242 |
| 41 | `CNC(=O)c1cc2c(nc1NCC1CC1)CCN(S(=O)(=O)C1CC1)CC2` | -10.61 |
| 42 | `c1cnn(CC2CN(Cc3noc(C4CC4)n3)CCO2)c1` (stereo not given) | -13.24 |
| 43 | `O=C(c1cc(C2CC2)[nH]n1)N1CCCN(c2nccs2)CC1` | -2.057 |
| 44 | `O=C1NC2(CCNCC2)CC1c1cccnc1` (stereo not given) | 4.96 |
| 45 | `CNC(=O)CN1CCC(NC(=O)N(C)Cc2c(C)noc2C)CC1` | 7.717 |
| 46 | `O=C(O)C(F)(F)F.c1nc(COCC2CC2)c2n1CCCN(CC1CC1)C2` | 1.623 |
| 47 | `CC(C)n1cnc2c1C(C(=O)NCCC#N)N(Cc1ccccc1)CC2.O=C(O)C(F)(F)F` (stereo not given) | -7.811 & -7.684 & -3.214 |
| 48 | `O=C1C(NS(=O)(=O)c2ccc(F)cc2)CCN1Cc1ccccc1` (stereo not given) | 11.01 |
| 49 | `CC(C)Nc1cccc(CC2CCN(C)C2)n1.O=CO` (stereo not given) | 2.275 |
| 50 | `c1ccc(CCN2CCCC(Cn3ccnc3)C2)cc1` (stereo not given) | -7.581 |
| 51 | `[H][C@@]12CNC[C@]1([H])CN(C(=O)c1ccc(C)nc1)C2` | 2.224 |
| 52 | `Cc1cccn2cc(CC(=O)N3CCCC(n4cncn4)C3)nc12` (stereo not given) | 6.924 |
| 53 | `CN(C)Cc1noc2c1CN(Cc1ccc[nH]1)CC2` | 18.72 |
| 54 | `COc1ccc(CN2CC(O)CN(C(=O)OCC(C)C)CC2=O)cc1` (stereo not given) | -38.69 |
| 55 | `COc1ccc2c(c1)CC(NC(=O)NCc1cccs1)CO2` (stereo not given) | 10.39 |
| 56 | `O=C(O)C(F)(F)F.O=C(O)C(F)(F)F.[H][C@@]12COC[C@]1(COc1ncccc1F)CN(c1cc(OC)ncn1)C2` | -8.918 |
| 57 | `CCc1nnc2n1CCN(C(=O)c1cnc3ccccc3n1)C2` | -2.912 |
| 58 | `Cc1cccc(-c2ccc(C(=O)NCC3CCCO3)c(=O)[nH]2)c1` (stereo not given) | 10.68 |

Once more, the final 3:

For O=C(O)C(F)(F)F.O=C(O)C(F)(F)F.[H][C@@]12COC[C@]1(COc1ncccc1F)CN(c1cc(OC)ncn1)C2 the result was -8.918%.
For CCc1nnc2n1CCN(C(=O)c1cnc3ccccc3n1)C2 the result was -2.912%.
For Cc1cccc(-c2ccc(C(=O)NCC3CCCO3)c(=O)[nH]2)c1 (stereo not given) the result was 10.68%.

From ChEMBL document CHEMBL3988442, “University of Dundee, Small-Polar-MMV Screening Library” (2021).